Source: patent publication US20030119102A1
Results are given in words; binding and its absence hold for the method and conditions named. Some binding calls cover weakened binding; strength is not graded here.

By UniProt entry, the sequences of proteins in these tests, tags left out. Where a name states a change or a piece, a line headed by the entry shows the natural chain unless it says otherwise.
UniProt P04386: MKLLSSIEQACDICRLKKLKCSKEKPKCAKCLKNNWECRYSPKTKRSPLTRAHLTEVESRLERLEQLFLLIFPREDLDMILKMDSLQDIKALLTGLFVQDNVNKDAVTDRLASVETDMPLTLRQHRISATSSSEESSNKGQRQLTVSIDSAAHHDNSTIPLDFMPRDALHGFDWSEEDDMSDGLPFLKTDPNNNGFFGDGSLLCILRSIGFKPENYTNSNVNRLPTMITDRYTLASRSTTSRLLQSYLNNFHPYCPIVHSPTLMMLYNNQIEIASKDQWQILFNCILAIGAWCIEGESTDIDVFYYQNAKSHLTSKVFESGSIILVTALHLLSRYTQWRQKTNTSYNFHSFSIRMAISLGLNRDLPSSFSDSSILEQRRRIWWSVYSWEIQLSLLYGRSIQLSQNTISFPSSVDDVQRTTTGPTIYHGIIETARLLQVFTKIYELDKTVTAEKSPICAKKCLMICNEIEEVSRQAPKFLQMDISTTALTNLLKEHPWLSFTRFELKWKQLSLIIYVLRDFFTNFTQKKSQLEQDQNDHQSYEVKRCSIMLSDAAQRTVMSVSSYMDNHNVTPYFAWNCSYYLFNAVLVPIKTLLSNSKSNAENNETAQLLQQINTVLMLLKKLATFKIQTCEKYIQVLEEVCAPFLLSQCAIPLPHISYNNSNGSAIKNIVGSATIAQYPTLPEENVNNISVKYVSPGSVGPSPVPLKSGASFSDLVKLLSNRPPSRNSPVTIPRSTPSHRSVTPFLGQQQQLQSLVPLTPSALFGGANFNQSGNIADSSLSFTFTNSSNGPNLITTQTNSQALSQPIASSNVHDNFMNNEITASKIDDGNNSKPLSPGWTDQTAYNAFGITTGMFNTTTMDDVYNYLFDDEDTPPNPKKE
UniProt Q62897: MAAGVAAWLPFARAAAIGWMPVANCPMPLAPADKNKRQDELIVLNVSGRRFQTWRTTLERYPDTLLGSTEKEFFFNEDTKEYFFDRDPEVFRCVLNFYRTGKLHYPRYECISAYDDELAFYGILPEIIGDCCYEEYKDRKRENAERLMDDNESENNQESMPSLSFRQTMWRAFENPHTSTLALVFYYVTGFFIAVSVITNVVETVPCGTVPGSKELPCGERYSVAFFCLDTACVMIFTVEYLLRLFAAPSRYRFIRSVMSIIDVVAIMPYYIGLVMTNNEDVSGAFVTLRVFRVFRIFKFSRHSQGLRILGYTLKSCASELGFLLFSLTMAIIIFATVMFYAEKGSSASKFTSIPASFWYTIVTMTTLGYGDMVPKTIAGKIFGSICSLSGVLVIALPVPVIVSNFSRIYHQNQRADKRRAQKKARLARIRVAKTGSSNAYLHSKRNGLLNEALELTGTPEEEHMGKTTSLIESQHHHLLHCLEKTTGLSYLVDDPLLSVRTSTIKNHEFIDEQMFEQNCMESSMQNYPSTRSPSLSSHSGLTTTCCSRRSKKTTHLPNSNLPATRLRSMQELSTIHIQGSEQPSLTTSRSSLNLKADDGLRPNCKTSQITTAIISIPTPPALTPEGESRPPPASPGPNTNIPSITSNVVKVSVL
UniProt Q8VD63: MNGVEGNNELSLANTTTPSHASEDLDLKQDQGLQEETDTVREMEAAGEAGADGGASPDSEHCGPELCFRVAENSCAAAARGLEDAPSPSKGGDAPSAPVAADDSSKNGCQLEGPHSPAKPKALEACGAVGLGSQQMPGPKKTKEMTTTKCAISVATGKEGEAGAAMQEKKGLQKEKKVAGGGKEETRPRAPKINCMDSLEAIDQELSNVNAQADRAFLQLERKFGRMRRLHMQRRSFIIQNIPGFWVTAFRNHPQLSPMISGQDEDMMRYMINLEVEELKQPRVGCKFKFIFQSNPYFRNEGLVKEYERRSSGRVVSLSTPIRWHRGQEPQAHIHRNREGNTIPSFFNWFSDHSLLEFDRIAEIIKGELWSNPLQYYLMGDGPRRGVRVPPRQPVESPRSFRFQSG
UniProt P05712: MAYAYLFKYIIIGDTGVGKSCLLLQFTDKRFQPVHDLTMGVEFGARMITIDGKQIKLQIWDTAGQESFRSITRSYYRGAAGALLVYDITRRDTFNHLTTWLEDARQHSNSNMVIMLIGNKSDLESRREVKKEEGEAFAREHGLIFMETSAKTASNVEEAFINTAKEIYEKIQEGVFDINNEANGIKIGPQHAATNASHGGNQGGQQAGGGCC
UniProt P05943: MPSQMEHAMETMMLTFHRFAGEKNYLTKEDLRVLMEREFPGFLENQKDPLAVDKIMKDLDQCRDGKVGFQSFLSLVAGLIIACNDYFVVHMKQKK
UniProt P50516: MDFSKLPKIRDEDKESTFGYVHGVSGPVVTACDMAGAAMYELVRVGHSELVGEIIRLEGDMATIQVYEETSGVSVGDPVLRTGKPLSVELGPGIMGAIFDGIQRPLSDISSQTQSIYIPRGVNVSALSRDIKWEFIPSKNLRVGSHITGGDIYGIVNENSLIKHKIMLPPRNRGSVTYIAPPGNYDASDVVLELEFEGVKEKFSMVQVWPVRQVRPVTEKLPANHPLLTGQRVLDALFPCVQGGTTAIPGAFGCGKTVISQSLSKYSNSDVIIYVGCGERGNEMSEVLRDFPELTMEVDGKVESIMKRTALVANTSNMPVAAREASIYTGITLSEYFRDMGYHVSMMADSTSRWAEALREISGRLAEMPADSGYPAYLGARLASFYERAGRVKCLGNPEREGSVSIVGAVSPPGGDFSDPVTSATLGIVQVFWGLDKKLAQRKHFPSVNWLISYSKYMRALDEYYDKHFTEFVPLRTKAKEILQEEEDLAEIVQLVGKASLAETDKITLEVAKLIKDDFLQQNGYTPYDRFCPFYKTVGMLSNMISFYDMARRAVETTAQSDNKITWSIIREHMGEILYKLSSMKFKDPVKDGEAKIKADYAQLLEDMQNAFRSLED

Assays:
[1] = molecular target: T1, {GAL4 DNA-binding domain}-{rKv4.3(1-180)} fusion (rat) (UniProt P04386+Q62897); test: yeast two-hybrid
[2] = molecular target: T2, rKv4.2N (rat) (UniProt Q63881); test: yeast two-hybrid
T2 sequence (looked up): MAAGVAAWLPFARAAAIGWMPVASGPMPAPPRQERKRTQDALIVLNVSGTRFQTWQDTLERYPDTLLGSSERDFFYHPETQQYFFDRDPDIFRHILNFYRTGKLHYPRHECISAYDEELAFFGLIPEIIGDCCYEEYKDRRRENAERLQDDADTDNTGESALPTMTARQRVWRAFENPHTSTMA

[3] = molecular target: T1, {GAL4 DNA-binding domain}-{rKv4.3(1-180)} fusion (rat); test: yeast two-hybrid screen

Measured: binding

rat 33b07 (from UniProt Q8VD63 1-406)
binds: [1] | [2] | [3]

rat 7q (from UniProt P05712 1-212)
binds: [1] | [2] | [3]

rat 5p (from UniProt P05943 1-95)
binds: [1] | [2] | [3]

rat 7s (from UniProt P50516 348-617)
binds: [1] | [2] | [3]
